The text below walks through data of article PMC11564547, “An interaction network of inner centriole proteins organised by POC1A-POC1B heterodimer crosslinks ensures centriolar integrity” (Nature Communications, 2024).

Results are given in words; binding and its absence hold for the method and conditions named. In cells and extracts the contact can be indirect. Some results given as binding are weak or reduced against the parent protein; the word gives no strength. Sequences can lack the tags named with a protein.

Experiment [1] has as its target T1, POC1A-FLAG (full-length POC1A, FLAG-tagged) (human) (UniProt Q8NBT0).
T1 sequence: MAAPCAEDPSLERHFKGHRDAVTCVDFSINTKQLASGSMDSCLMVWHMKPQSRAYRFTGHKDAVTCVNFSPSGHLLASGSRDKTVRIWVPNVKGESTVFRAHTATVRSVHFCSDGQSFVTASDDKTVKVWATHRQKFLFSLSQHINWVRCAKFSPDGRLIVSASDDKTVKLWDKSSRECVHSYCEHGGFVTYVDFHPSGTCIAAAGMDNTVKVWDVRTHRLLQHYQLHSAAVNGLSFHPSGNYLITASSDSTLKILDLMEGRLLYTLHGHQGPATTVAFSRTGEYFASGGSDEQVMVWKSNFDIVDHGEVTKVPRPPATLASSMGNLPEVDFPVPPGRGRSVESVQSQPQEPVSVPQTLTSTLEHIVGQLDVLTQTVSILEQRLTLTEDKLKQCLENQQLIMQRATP
The experiment is described as follows: co-IP; FLAG IP from HEK293T cells co-expressing FLAG-tagged POC1 constructs (bait) and HA-tagged partners (prey), Dox-induced, harvested after 24 h; lysis 150 mM NaCl, 10 mM Tris-Cl pH 7.5, 0.5 mM EDTA, 0.5% NP-40, Benzonase; beads 1 h at 4 °C; washes 300 mM NaCl; elution with FLAG peptide; immunoblot. In general terms: A western blot detects proteins with antibodies after separation by electrophoresis.

The target in experiment [2] is T2, POC1B-FLAG (full-length POC1B, FLAG-tagged) (human) (UniProt Q8TC44).
T2 sequence: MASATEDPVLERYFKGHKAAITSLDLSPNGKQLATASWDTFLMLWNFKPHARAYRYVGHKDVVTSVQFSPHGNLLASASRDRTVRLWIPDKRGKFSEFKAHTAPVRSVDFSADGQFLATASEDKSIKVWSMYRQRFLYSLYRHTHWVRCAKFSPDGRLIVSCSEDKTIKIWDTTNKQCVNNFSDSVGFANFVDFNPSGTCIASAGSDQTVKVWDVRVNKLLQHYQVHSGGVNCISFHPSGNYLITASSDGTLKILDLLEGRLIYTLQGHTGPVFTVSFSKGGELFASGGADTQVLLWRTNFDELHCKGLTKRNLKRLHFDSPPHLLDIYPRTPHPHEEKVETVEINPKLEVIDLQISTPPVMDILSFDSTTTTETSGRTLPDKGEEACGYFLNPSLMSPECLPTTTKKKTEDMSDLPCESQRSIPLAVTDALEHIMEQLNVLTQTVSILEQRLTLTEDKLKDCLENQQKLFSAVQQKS
Described as above.

B1: POC5^266-575-HA (C-terminal fragment of POC5) (domain or fragment, UniProt Q8NA72 266-575)
chain: VYEGKLADQYYQRTLLKKVWKVWRSVVQKQWKDVVERACQARAEEVCIQISNDYEAKVAMLSGALENAKAEIQRMQHEKEHFEDSMKKAFMRGVCALNLEAMTIFQNRNDAGIDSTNNKKEEYGPGVQGKEHSAHLDPSAPPMPLPVTSPLLPSPPAAVGGASATAVPSAASMTSTRAASASSVHVPVSALGAGSAATAASEEMYVPRVVTSAQQKAGRTITARITGRCDFASKNRISSSLAIMGVSPPMSSVVVEKHHPVTVQTIPQATAAKYPRTIHPESSTSASRSLGTRSAHTQSLTSVHSIKVVD
As to B1, in experiment [1], the binding entry is “binds”.

B2: MDM1-HA (protein, UniProt Q8TC05 1-714)
chain: MPVRFKGLSEYQRNFLWKKSYLSESCNSSVGRKYPWAGLRSDQLGITKEPSFISKRRVPYHDPQISKSLEWNGAISESNVVASPEPEAPETPKSQEAEQKDVTQERVHSLEASRVPKRTRSHSADSRAEGASDVENNEGVTNHTPVNENVELEHSTKVLSENVDNGLDRLLRKKAGLTVVPSYNALRNSEYQRQFVWKTSKETAPAFAANQVFHNKSQFVPPFKGNSVIHETEYKRNFKGLSPVKEPKLRNDLRENRNLETVSPERKSNKIDDRLKLEAEMELKDLHQPKRKLTPWKHQRLGKVNSEYRAKFLSPAQYLYKAGAWTHVKGNMPNQVKELREKAEFYRKRVQGTHFSRDHLNQILSDSNCCWDVSSTTSSEGTVSSNIRALDLAGDPTSHKTLQKCPSTEPEEKGNIVEEQPQKNTTEKLGVSAPTIPVRRRLAWDTENTSEDVQKQPGEKEEEDDNEEEGDRKTGKQAFMGEQEKLDVREKSKADKMKEGSDSSVSSEKGGRLPTPKLRELGGIQRTHHDLTTPAVGGAVLVSPSKMKPPAPEQRKRMTSQDCLETSKNDFTKKESRAVSLLTSPAAGIKTVDPLPLREDSEDNIHKFAEATLPVSKIPKYPTNPPGQLPSPPHVPSYWHPSRRIQGSLRDPEFQHNVGKARMNNLQLPQHEAFNDEDEDRLSEISARSAASSLRAFQTLARAKKRKENFWGKT
In the case of B2, the binding entry in experiment [1] and in experiment [2] was “binds” in each case.

B3: POC5^1-471-HA (N-terminus of POC5) (domain or fragment, UniProt Q8NA72 1-471)
chain: MSSDEEKYSLPVVQNDSSRGSSVSSNLQEEYEELLHYAIVTPNIEPCASQSSHPKGELVPDVRISTIHDILHSQGNNSEVRETAIEVGKGCDFHISSHSKTDESSPVLSPRKPSHPVMDFFSSHLLADSSSPATNSSHTDAHEILVSDFLVSDENLQKMENVLDLWSSGLKTNIISELSKWRLNFIDWHRMEMRKEKEKHAAHLKQLCNQINELKELQKTFEISIGRKDEVISSLSHAIGKQKEKIELMRTFFHWRIGHVRARQDVYEGKLADQYYQRTLLKKVWKVWRSVVQKQWKDVVERACQARAEEVCIQISNDYEAKVAMLSGALENAKAEIQRMQHEKEHFEDSMKKAFMRGVCALNLEAMTIFQNRNDAGIDSTNNKKEEYGPGVQGKEHSAHLDPSAPPMPLPVTSPLLPSPPAAVGGASATAVPSAASMTSTRAASASSVHVPVSALGAGSAATAASEEMYV
As to B3, in experiment [1], the binding result is listed as “no binding”.
